At least one compound was matched to its structure with a doubt left.
Tests used:
Set-up in all cases: species or system human
R1.4 (HCT116-RDAC) = assay: MTT based cell survival assay, DAC resistant HCT116 clone R1.4; settings: R1.4, MTT, 72 h drug treatment
Experimental: (§1) The DAC resistant HCT116 cell lines were developed using two methods.
(§2) The method is primarily based on reduction of yellow colored tetrazolium salt, 3-(4,5-dimethylthiazol-2-yl)-2,5-diphenyltetrazolium bromide (MTT) to insoluble purple colored formazan crystals by NAD(P)H-dependent oxidoreductase enzymes in mitochondria of the viable cell.
(§3) Cells in 80 μL of medium were plated in each of the experimental and the control wells, followed by addition of 20 μL medium with five-fold drug concentration to experimental wells. The wells with medium alone were included alongside as blank for absorbance readings. After 72 h of drug treatment, 10 μL MTT (Sigma-Aldrich) prepared in 1×PBS (5 mg/mL) was added to all wells including blank and control, and incubated until the purple formazan crystals were visible after which 100 μL of detergent (10% SDS, pH: 5.5) was added and the plates were incubated overnight to solubilize the formazan and the cellular material.
(§4) Cross resistance was determined as the fold increase, whereas, the sensitivity was determined as the fold decrease in the IC50 of the drugs for the resistant cell lines compared to their genetically identical drug sensitive counterpart.

R1.3 (HCT116-RDAC) = assay: MTT based cell survival assay, DAC resistant HCT116 clone R1.3; settings: R1.3, MTT, 72 h drug treatment
Experimental: as §1, §2, §3, §4

R2.2 (HCT116-RDAC) = assay: MTT based cell survival assay, DAC resistant HCT116 clone R2.2; settings: R2.2, MTT, 72 h drug treatment
Experimental: as §1, §2, §3, §4

R1.2 (HCT116-RDAC) = assay: MTT based cell survival assay, DAC resistant HCT116 clone R1.2; settings: R1.2, MTT, 72 h drug treatment
Experimental: as §1, §2, §3, §4

R1.1 (HCT116-RDAC) = assay: MTT based cell survival assay, DAC resistant HCT116 clone R1.1; settings: R1.1, MTT, 72 h drug treatment
Experimental: as §1, §2, §3, §4

R2.1 (HCT116-RDAC) = assay: MTT based cell survival assay, DAC resistant HCT116 clone R2.1; settings: R2.1, MTT, 72 h drug treatment
Experimental: as §1, §2, §3, §4

Measured: IC50

Cl.Nc1nccc2c1ncn2[C@@H]1C=C(CO)[C@@H](O)[C@H]1O [DZNep, 3-Deazaneplanocin A hydrochloride]
≥ 25 µM: all assays above
